{"source": "paper PMC3459988", "key": {"[1]": {"target": "T1, TTP, CIP-dephosphorylated or as purified (UniProt P22893)", "T1 sequence (looked up, limits assumed)": "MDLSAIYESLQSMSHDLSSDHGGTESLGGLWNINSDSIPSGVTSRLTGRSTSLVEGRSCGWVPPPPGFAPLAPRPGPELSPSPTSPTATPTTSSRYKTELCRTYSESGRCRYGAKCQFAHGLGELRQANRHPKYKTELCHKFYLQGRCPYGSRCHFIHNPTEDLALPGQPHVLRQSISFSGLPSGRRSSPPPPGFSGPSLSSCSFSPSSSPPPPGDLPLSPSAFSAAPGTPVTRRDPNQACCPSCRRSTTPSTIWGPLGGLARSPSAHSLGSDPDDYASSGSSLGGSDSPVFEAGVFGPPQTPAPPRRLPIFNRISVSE", "assay": "competition, UV cross-linking", "details": "HuR competitor, no active MK2, displacement at about threefold molar excess of the other protein; EMSA: 20 mM HEPES pH 7.6, 3 mM MgCl2, 40 mM KCl, 5% glycerol, 2 mM DTT, 4 ug tRNA, 75 fmol probe in 20 ul (text states 75 fM), 25 min, 4 C; protein in a lysate after overexpression; protein details: His-Strep (pcDNA3); label: 5'-DY-681"}, "[2]": {"test_system": "HuR (His/Strep-purified strep-HuR)", "assay": "competition, UV cross-linking", "details": "TTP competitor, no active MK2, displacement at about threefold molar excess of the other protein; EMSA: 20 mM HEPES pH 7.6, 3 mM MgCl2, 40 mM KCl, 5% glycerol, 2 mM DTT, 4 ug tRNA, 75 fmol probe in 20 ul (text states 75 fM), 25 min, 4 C; protein in a lysate after overexpression; protein details: Strep (pEXPR-IBA105); label: 5'-DY-681"}, "TTP-AA S52A,S178A [3]": {"target": "T2, TTP-AA S52A,S178A (UniProt P22893)", "T2 sequence (looked up, limits assumed)": "T1 sequence (looked up, limits assumed) with S52A, S178A", "assay": "competition, UV cross-linking", "details": "100 ng with 25 or 50 ng HuR, equilibrium unchanged by p38/MK2; EMSA: 20 mM HEPES pH 7.6, 3 mM MgCl2, 40 mM KCl, 5% glycerol, 2 mM DTT, 4 ug tRNA, 75 fmol probe in 20 ul (text states 75 fM), 25 min, 4 C; protein in a lysate after overexpression; protein details: His-Strep (pcDNA3); label: 5'-DY-681"}, "TTP-S52A": {"target": "T3, TTP-S52A (UniProt P22893)", "T3 sequence (looked up, limits assumed)": "T1 sequence (looked up, limits assumed) with S52A", "assay": "competition, UV cross-linking", "details": "100 ng with 25 or 50 ng HuR, equilibrium unchanged by p38/MK2; EMSA: 20 mM HEPES pH 7.6, 3 mM MgCl2, 40 mM KCl, 5% glycerol, 2 mM DTT, 4 ug tRNA, 75 fmol probe in 20 ul (text states 75 fM), 25 min, 4 C; protein in a lysate after overexpression; protein details: His-Strep (pcDNA3); label: 5'-DY-681"}, "TTP-S178A": {"target": "T4, TTP-S178A (UniProt P22893)", "T4 sequence (looked up, limits assumed)": "T1 sequence (looked up, limits assumed) with S178A", "assay": "competition, UV cross-linking", "details": "100 ng with 25 or 50 ng HuR, equilibrium unchanged by p38/MK2; EMSA: 20 mM HEPES pH 7.6, 3 mM MgCl2, 40 mM KCl, 5% glycerol, 2 mM DTT, 4 ug tRNA, 75 fmol probe in 20 ul (text states 75 fM), 25 min, 4 C; protein in a lysate after overexpression; protein details: His-Strep (pcDNA3); label: 5'-DY-681"}, "[4]": {"test_system": "HuR incubated with p38/MK2", "assay": "competition, UV cross-linking", "details": "25 ng HuR with 100 ng TTP, active p38/MK2, almost exclusive HuR binding; EMSA: 20 mM HEPES pH 7.6, 3 mM MgCl2, 40 mM KCl, 5% glycerol, 2 mM DTT, 4 ug tRNA, 75 fmol probe in 20 ul (text states 75 fM), 25 min, 4 C; protein in a lysate after overexpression; protein details: Strep (pEXPR-IBA105); label: 5'-DY-681"}, "[5]": {"target": "TTP phosphorylated by p38/MK2 (UniProt P22893)", "assay": "competition, UV cross-linking", "details": "100 ng TTP with 25 ng HuR, active p38/MK2, displaced by HuR; EMSA: 20 mM HEPES pH 7.6, 3 mM MgCl2, 40 mM KCl, 5% glycerol, 2 mM DTT, 4 ug tRNA, 75 fmol probe in 20 ul (text states 75 fM), 25 min, 4 C; protein in a lysate after overexpression; protein details: His-Strep (pcDNA3); label: 5'-DY-681"}, "TTP-AA S52A,S178A [6]": {"target": "T2, TTP-AA S52A,S178A", "assay": "EMSA", "details": "EMSA: 20 mM HEPES pH 7.6, 3 mM MgCl2, 40 mM KCl, 5% glycerol, 2 mM DTT, 4 ug tRNA, 75 fmol probe in 20 ul (text states 75 fM), 25 min, 4 C, protein in a lysate after overexpression, protein details: His-Strep (pcDNA3), label: 5'-DY-681"}, "[7]": {"target": "TTP phosphorylated by p38/MK2 (UniProt P22893)", "assay": "EMSA", "details": "4e-6 M TTP, p38/MK2-phosphorylated versus dephosphorylated; EMSA: 20 mM HEPES pH 7.6, 3 mM MgCl2, 40 mM KCl, 5% glycerol, 2 mM DTT, 4 ug tRNA, 75 fmol probe in 20 ul (text states 75 fM), 25 min, 4 C; protein in a lysate after overexpression; protein details: His-Strep (pcDNA3); label: 5'-DY-681"}, "[8]": {"target": "T1, TTP, CIP-dephosphorylated or as purified", "assay": "EMSA supershift", "details": "one band, anti-TTP supershift, EMSA: 20 mM HEPES pH 7.6, 3 mM MgCl2, 40 mM KCl, 5% glycerol, 2 mM DTT, 4 ug tRNA, 75 fmol probe in 20 ul (text states 75 fM), 25 min, 4 C, protein in a lysate after overexpression, protein details: His-Strep (pcDNA3), label: 5'-DY-681"}, "[9]": {"test_system": "HuR (His/Strep-purified strep-HuR)", "assay": "EMSA supershift", "details": "as purified, two-band pattern, anti-HuR supershift; EMSA: 20 mM HEPES pH 7.6, 3 mM MgCl2, 40 mM KCl, 5% glycerol, 2 mM DTT, 4 ug tRNA, 75 fmol probe in 20 ul (text states 75 fM), 25 min, 4 C; protein in a lysate after overexpression; protein details: Strep (pEXPR-IBA105); label: 5'-DY-681"}, "[10]": {"target": "T1, TTP, CIP-dephosphorylated or as purified", "assay": "EMSA and UV cross-linking titration", "details": "CIP-dephosphorylated; EMSA: 20 mM HEPES pH 7.6, 3 mM MgCl2, 40 mM KCl, 5% glycerol, 2 mM DTT, 4 ug tRNA, 75 fmol probe in 20 ul (text states 75 fM), 25 min, 4 C; protein in a lysate after overexpression; protein details: His-Strep (pcDNA3); label: 5'-DY-681"}, "[11]": {"test_system": "HuR (His/Strep-purified strep-HuR)", "assay": "EMSA and UV cross-linking titration", "details": "CIP-dephosphorylated; EMSA: 20 mM HEPES pH 7.6, 3 mM MgCl2, 40 mM KCl, 5% glycerol, 2 mM DTT, 4 ug tRNA, 75 fmol probe in 20 ul (text states 75 fM), 25 min, 4 C; protein in a lysate after overexpression; protein details: Strep (pEXPR-IBA105); label: 5'-DY-681"}, "[12]": {"test_system": "HuR incubated with p38/MK2", "assay": "EMSA and UV cross-linking titration", "details": "active p38/MK2, no significant change; EMSA: 20 mM HEPES pH 7.6, 3 mM MgCl2, 40 mM KCl, 5% glycerol, 2 mM DTT, 4 ug tRNA, 75 fmol probe in 20 ul (text states 75 fM), 25 min, 4 C; protein in a lysate after overexpression; protein details: Strep (pEXPR-IBA105); label: 5'-DY-681"}, "[13]": {"target": "TTP phosphorylated by p38/MK2 (UniProt P22893)", "assay": "EMSA and UV cross-linking titration", "details": "p38/MK2-phosphorylated; EMSA: 20 mM HEPES pH 7.6, 3 mM MgCl2, 40 mM KCl, 5% glycerol, 2 mM DTT, 4 ug tRNA, 75 fmol probe in 20 ul (text states 75 fM), 25 min, 4 C; protein in a lysate after overexpression; protein details: His-Strep (pcDNA3); label: 5'-DY-681"}}, "note": "Substitutions are numbered along the chain they refer to. For at least one entry, the source does not settle the construct or the ends of the probe. Where cells or extracts were used, other partners may take part. For some of these results: The comparison behind a weaker result is the experiment's own reference, which may not be listed here. For some of these results: At least one verdict was read from the data and is not stated in words by the source. For some of these results: Tags and fusion partners may be left off the protein sequences shown.", "data": [{"sequence": "AUUUAUUUAUUUAUUUAUUUAUUUA [TNF ARE RNA probe]", "values": [{"measurement": "binding result", "setting": "[1]", "result": "binds"}, {"measurement": "binding result", "setting": "[2]", "result": "binds"}, {"measurement": "binding result", "setting": "TTP-AA S52A,S178A [3]", "result": "binds"}, {"measurement": "binding result", "setting": "TTP-S52A", "result": "binds"}, {"measurement": "binding result", "setting": "TTP-S178A", "result": "binds"}, {"measurement": "binding result", "setting": "[4]", "result": "binds"}, {"measurement": "binding result", "setting": "[5]", "result": "binds more weakly"}, {"measurement": "binding result", "setting": "TTP-AA S52A,S178A [6]; active p38/MK2, affinity not altered", "result": "binds"}, {"measurement": "binding result", "setting": "TTP-AA S52A,S178A [6]; data not shown", "result": "binds"}, {"measurement": "binding result", "setting": "[7]", "result": "binds more weakly"}, {"measurement": "binding result", "setting": "[8]", "result": "binds"}, {"measurement": "binding result", "setting": "[9]", "result": "binds"}, {"measurement": "Kd", "setting": "[10]", "result": "5 1e-7 M"}, {"measurement": "binding result", "setting": "[11]", "result": "binds"}, {"measurement": "binding result", "setting": "[12]", "result": "binds"}, {"measurement": "binding result", "setting": "[13]", "result": "binds more weakly"}]}]}
